Results on eleven molecules are retold here after the supplement of paper PMC10077471.

Over roughly 1,900 compounds, “excess over highest single agent (ExcessHSA) synergy score, 6x6 matrix” has its median near -83; the lowest 2% begin near -370. Some of the results follow.

In this experiment the test system is NCI-H446. Nature of the experiment: excess over highest single agent (ExcessHSA) synergy score, 6x6 matrix; higher = less synergy (more negative = stronger synergy). The settings on record: 72 h; CellTiter-Glo viability.
`C=CCc1ccc(O)c(-c2ccc(O)c(CC=C)c2)c1` + Cc1sc2c(c1C)C(c1ccc(Cl)cc1)=N[C@@H](CC(=O)OC(C)(C)C)c1nnc(C)n1-2 [NCGC00250412-19]: the “excess over highest single agent” value was determined as 29.3.
Regarding `CC(C)C[C@H](NC(=O)[C@@H](O)[C@H](N)Cc1ccccc1)C(=O)O` + Cc1sc2c(c1C)C(c1ccc(Cl)cc1)=N[C@@H](CC(=O)OC(C)(C)C)c1nnc(C)n1-2 [NCGC00250412-19], the “excess over highest single agent” value is -74.5.
With `CS(=O)(=O)N(Cc1ccco1)C[C@@H](O)Cn1c2ccccc2c2ccccc21` + Cc1sc2c(c1C)C(c1ccc(Cl)cc1)=N[C@@H](CC(=O)OC(C)(C)C)c1nnc(C)n1-2 [NCGC00250412-19], the “excess over highest single agent” value was -206.
On to `COC(=O)[C@H]1[C@H]2C[C@@H]3c4[nH]c5cc(OC)ccc5c4CCN3C[C@H]2C[C@@H](OC(=O)c2cc(OC)c(OC)c(OC)c2)[C@@H]1OC` + Cc1sc2c(c1C)C(c1ccc(Cl)cc1)=N[C@@H](CC(=O)OC(C)(C)C)c1nnc(C)n1-2 [NCGC00250412-19], for which the “excess over highest single agent” value was -138.
The value for `COc1ccc2cccc(CCNC(C)=O)c2c1` + Cc1sc2c(c1C)C(c1ccc(Cl)cc1)=N[C@@H](CC(=O)OC(C)(C)C)c1nnc(C)n1-2 [NCGC00250412-19] was -34.9; that for `CN(C)C(=O)c1ccc(S(=O)(=O)c2ccc(NC(=O)[C@@](C)(O)C(F)(F)F)c(Cl)c2)cc1` + Cc1sc2c(c1C)C(c1ccc(Cl)cc1)=N[C@@H](CC(=O)OC(C)(C)C)c1nnc(C)n1-2 [NCGC00250412-19] was -99.3.
With `CC(C)NCC(O)c1ccc(NS(C)(=O)=O)cc1` (stereo unspecified) + Cc1sc2c(c1C)C(c1ccc(Cl)cc1)=N[C@@H](CC(=O)OC(C)(C)C)c1nnc(C)n1-2 [NCGC00250412-19], the “excess over highest single agent” value is -14.7.
Regarding `C#C[C@]1(O)CC[C@H]2[C@@H]3CCc4cc(OC)ccc4[C@H]3CC[C@@]21C` + Cc1sc2c(c1C)C(c1ccc(Cl)cc1)=N[C@@H](CC(=O)OC(C)(C)C)c1nnc(C)n1-2 [NCGC00250412-19], the “excess over highest single agent” value is -126.
With `CC(=O)N1CCN(c2ccc(OCC3COC(Cn4ccnc4)(c4ccc(Cl)cc4Cl)O3)cc2)CC1` (stereo unspecified) + Cc1sc2c(c1C)C(c1ccc(Cl)cc1)=N[C@@H](CC(=O)OC(C)(C)C)c1nnc(C)n1-2 [NCGC00250412-19], the “excess over highest single agent” value is -31.4.
With `CN(CCOc1ccc(NS(C)(=O)=O)cc1)CCc1ccc(NS(C)(=O)=O)cc1` + Cc1sc2c(c1C)C(c1ccc(Cl)cc1)=N[C@@H](CC(=O)OC(C)(C)C)c1nnc(C)n1-2 [NCGC00250412-19] the figure was -135; with `CN(C)CC(=O)N1CCC(c2ccc(NC(=O)c3ncc(C#N)[nH]3)c(C3=CCCCC3)c2)CC1` + Cc1sc2c(c1C)C(c1ccc(Cl)cc1)=N[C@@H](CC(=O)OC(C)(C)C)c1nnc(C)n1-2 [NCGC00250412-19], 53.2.
